From publication PMC5571287 (Antimicrobial Agents and Chemotherapy, 2017)

Test system: HEp-2 cells

Question: Which CC50 does the source give for `Cc1ccc(CCCO)c(NCc2ccc3nc(NCCCN4CCOCC4)n(Cc4nc(C)ccc4O)c3c2)c1` [TMC35315] here?
Answer: Its CC50 is 7.94 µM.
